Measurements as given in PubChem BioAssay AID504834 (National Center for Advancing Translational Sciences (NCATS), 2011).
About 22,000 (6.9%) of roughly 320,000 compounds were called active. The shares of active, inactive and inconclusive entries below differ from those in the screen. Calls follow the shape of the dose curve; as a rule, active = well fitted inhibition curve with a large enough effect; inconclusive = small, poorly fitted or top-dose-only effect, or another doubt; inactive = no such curve, though single readings can be large or run the other way. Where the call is inconclusive, the potency comes from a doubtful curve fit.

experiment: Primary qHTS for delayed death inhibitors of the malarial parasite plastid, 96 hour incubation; conditions: P. falciparum luciferase reporter growth; series mostly up to 28.7 µM
Method in brief: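 P. falciparum expressing integrated firefly luciferase grown in erythrocytes (2% hematocrit, 0.05% parasitemia final) with compounds for 96 hours at 37 C, 5% CO2. Growth inhibition read as loss of luminescence after adding luciferase detection reagent.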
Potency is read from the fitted curve at half-maximal effect.

SMILES | Potency
C=CCSc1ccc(S(=O)(=O)N2CCN(C)CC2)cn1 | inactive
CCOC(=O)N1CCN(S(=O)(=O)c2c(C)nn(C)c2C)CC1 | inconclusive: 18.5 µM [inhibitor, single point]
CCC(=O)OC1(C(=O)CCl)[C@@H](C)C[C@H]2[C@@H]3CCC4=CC(=O)C=C[C@]4(C)[C@@]3(F)[C@@H](O)C[C@@]21C (some centres not stated) | active: 5.22 µM
COCCNC(=O)C(=O)NCCN1CCNCC1 | inactive
Cc1oc(-c2ccc(Cl)cc2)nc1CS(=O)CC(=O)NC1CCCCCC1 (configuration not stated) | active: 9.28 µM
O=C1c2ccccc2C(=O)C1(O)O | inactive
CCOc1ccccc1NC(=O)c1nnn(CC(=O)Nc2ccc3c(c2)OCO3)c1N | inactive
Cc1ccc(NC(=O)COc2cccc(C)c2C)cc1S(=O)(=O)N1CCCCCC1 | inconclusive: 18.5 µM [inhibitor, single point]
Clc1cccc(-c2nnc3sc(-c4ccc5c(c4)OCO5)nn23)c1 | inconclusive: 16.5 µM [inhibitor, single point]
COc1ccc(C(=O)Nc2ccc(Cl)cc2C(=O)N2CCCC(C)C2)cc1OC (configuration not stated) | inconclusive: 0.147 µM [inhibitor, full curve]
CN=C(Nc1ccc(C(=O)OC)s1)c1ccccc1 | inconclusive: 1.85 µM [inhibitor, single point]
Cc1nn(Cc2ccccc2)c(N)c1-c1ccccc1 | inactive
N#CC(C#N)=Cc1cccnc1 | inactive
CCCCNC(=S)Nc1ccc(C(F)(F)F)cc1 | inconclusive: 18.5 µM [inhibitor, single point]
Cc1ccc(-n2c(C)cc(C(=O)CSc3nnnn3C)c2C)cc1 | inconclusive: 18.5 µM [inhibitor, single point]
Cc1ccc(C)c(Cn2c(=O)n(CCC(=O)NCc3ccco3)c(=O)c3sccc32)c1 | inconclusive: 0.0738 µM [inhibitor, full curve, poor fit]
Cc1ccc(NC(=O)c2ccc(S(=O)(=O)NCc3cccnc3)cc2)cc1C | inconclusive: 8.28 µM [inhibitor, partial curve]
Cc1cc(C)cc(OCC(=O)NNC(=O)CCC(=O)NCc2ccccc2)c1 | inconclusive: 20.8 µM [inhibitor, partial curve, poor fit]
Cc1c(CCOC(=O)CC23CC4CC(CC(C4)C2)C3)sc[n+]1Cc1ccccc1 | inconclusive: 0.294 µM [inhibitor, full curve, poor fit]
Cc1ccc(-n2c(-c3ccc([N+](=O)[O-])cc3)nc3ccccc3c2=O)cc1 | inconclusive: 9.28 µM [inhibitor, single point]
Cn1c(CCc2ccccc2)n[nH]c1=S | inactive
O=C(NC1CCS(=O)(=O)C1)Oc1ccccc1 (configuration not stated) | inactive
O=C(Nc1ccc(Oc2ccc3c(c2)C(=O)N(c2ccc(O)cc2)C3=O)cc1)c1cccs1 | inconclusive: 18.5 µM [inhibitor, single point]
CC(C)(C)OC(=O)N[C@H](C(=O)OC(C)(C)C)c1ccccc1 | inconclusive: 16.5 µM [inhibitor, single point]

SMILES | Potency
O=C1CCCc2oc3c(cc(NS(=O)(=O)c4ccc5c6c(cccc46)C(=O)N5)c4ccccc43)c21 | active: 11.7 µM
CC(=O)COc1ccc2c(-c3cccc([N+](=O)[O-])c3)cc(=O)oc2c1 | inconclusive: 11.7 µM [inhibitor, single point]
COc1ccccc1N1C(=NC(=O)C(C)Oc2ccccc2)SC2CS(=O)(=O)CC21 (configuration not stated) | inactive
COC(=O)c1cc(NC(=O)c2ccccc2)c(=O)oc1/C=C/Nc1ccc(Oc2ccccc2)cc1 | inconclusive: 0.0026 µM [inhibitor, full curve, poor fit]
CC(Oc1ccccc1F)c1nnc(SCC(=O)c2c(N)n(C3CC3)c(=O)[nH]c2=O)o1 (configuration not stated) | inactive
CC(=O)Nc1ccc(NC(=O)/C=C/c2ccccc2)cc1 | inactive
CCS(=O)(=O)n1nc(-c2ccc(Cl)cc2)nc1SCc1ccccc1 | inactive
O=C(NCCNC(=O)c1ccco1)c1ccco1 | inconclusive: 5.86 µM [inhibitor, partial curve, poor fit]
COc1ccc(-c2noc(N3CCC(C(=O)NCc4ccc(Cl)cc4)CC3)n2)cc1 | inactive
Cc1ccc(NC(=O)CCc2c(C)nn(-c3ccc(N4CCCCC4)nn3)c2C)cc1 | inconclusive: 4.65 µM [inhibitor, partial curve]
COc1ccc(Cl)cc1NC(=S)N1CCCC1 | inconclusive: 1.04 µM [inhibitor, full curve]
COc1ccc(C(=O)c2cc(C(C)=O)c(Nc3ccccc3)s2)cc1 | inconclusive: 18.5 µM [inhibitor, single point]
CCCc1[nH]nc2c1C(c1ccncc1)C(C#N)=C(N)O2 (configuration not stated) | inconclusive: 23.3 µM [inhibitor, partial curve, poor fit]
CN(C)c1cccc(C(=O)Nc2cccc(S(=O)(=O)NC3=NCCC3)c2)c1 | inactive
CC(C)(C)c1ccc(COn2ccnc2)cc1 | inconclusive: 9.28 µM [inhibitor, partial curve]
COc1ccc(Cl)cc1C(=O)O/N=C(\N)c1ccncc1 | inconclusive: 18.5 µM [inhibitor, single point]
CC(C)(C)c1ccc(CN2N=Nc3ccccc3S2(=O)=O)cc1 | inconclusive: 5.22 µM [inhibitor, partial curve, poor fit]
O=[N+]([O-])c1ccc2c(c1)c1ccccc1n2CCO | inconclusive: 4.15 µM [inhibitor, full curve, poor fit]
CCN(CC)CCCN(Cc1cc2cc(OC)ccc2[nH]c1=O)C(=O)Nc1ccccc1 | inconclusive: 8.28 µM [inhibitor, partial curve, poor fit]
CC(=O)Nc1ccc(S(=O)(=O)N(C)c2ccc(OCC(=O)Nc3ccccc3C(C)=O)cc2)cc1 | inconclusive: 10.4 µM [inhibitor, partial curve, poor fit]
N#Cc1ccsc1NC(=O)c1ccccn1 | inactive
COc1ccccc1C(=O)N/N=C(\C)c1ccc(NC(=O)C2CC2)cc1 | inconclusive: 4.15 µM [inhibitor, partial curve, poor fit]
CC(C)CSc1n[nH]c(=S)s1 | inactive
COC(=O)C1=C(C)N(CC2CCCO2)C(=O)C1 (configuration not stated) | inconclusive: 14.7 µM [inhibitor, single point]

In a second layout: three of the compounds above

| SMILES | Potency |
| --- | --- |
| COc1ccc(-c2noc(N3CCC(C(=O)NCc4ccc(Cl)cc4)CC3)n2)cc1 | inactive |
| Cc1ccc(NC(=O)CCc2c(C)nn(-c3ccc(N4CCCCC4)nn3)c2C)cc1 | inconclusive: 4.65 µM [inhibitor, partial curve] |
| COc1ccc(Cl)cc1NC(=S)N1CCCC1 | inconclusive: 1.04 µM [inhibitor, full curve] |

The listing continues:

SMILES | Potency
O=C(NCc1cccc(Cl)c1)C1CCN(S(=O)(=O)c2ccc(F)cc2)CC1 | inconclusive: 11.7 µM [inhibitor, partial curve, poor fit]
CCC1CCCCN1CCNS(=O)(=O)c1ccc2c(c1)CCN2C(C)=O (configuration not stated) | inconclusive: 9.28 µM [inhibitor, single point]
C=CCS(=O)(=O)c1nc2ccccc2s1 | inconclusive: 14.7 µM [inhibitor, single point]
CCOc1cc2oc(=O)c3c(c2cc1Cl)CCC3 | inconclusive: 11.7 µM [inhibitor, partial curve]
COc1ccc(C(=O)Nc2sc(C(=O)N(C)C)c(C)c2C#N)cc1[N+](=O)[O-] | inconclusive: 10.4 µM [inhibitor, single point]
Cc1ccc(S(=O)(=O)N/N=C\c2cccnc2)cc1 | inconclusive: 0.0329 µM [inhibitor, full curve, poor fit]
COCCN(CC(=O)Nc1cccc(C)c1C)C(=O)c1oc2c(Cl)cccc2c1C | inconclusive: 9.28 µM [inhibitor, single point]
COc1ccc(-c2ccc(SCC(=O)N3CCOCC3)nn2)cc1OC | inconclusive: 2.62 µM [inhibitor, partial curve, poor fit]
Cc1nc2sc3c(c2c(=O)o1)CCCC3 | active: 2.08 µM
Cc1ccc(C)n1-c1ccc(C(=O)N2CCOCC2)cc1 | inactive
CCCn1c(-c2cc(OC)c(OC)c(OC)c2)nc2nc3ccccc3nc21 | inconclusive: 14.7 µM [inhibitor, partial curve]
Cc1ccc(NC(=S)NC2CCN(Cc3ccccc3)CC2)cc1 | inconclusive: 9.28 µM [inhibitor, single point]
COc1ccc(NC(=O)C2C3C=CC(C3)C2C(=O)NCc2ccco2)c(OC)c1 (configuration not stated) | inconclusive: 18.5 µM [inhibitor, single point]
Cc1nc(NC(=O)c2cc3ccccc3o2)sc1C | inconclusive: 10.4 µM [inhibitor, single point]
COc1ccc2oc(-c3ccco3)cc(=O)c2c1 | inconclusive: 4.15 µM [inhibitor, partial curve, poor fit]
CCc1cccc(C)c1NC(=S)NCC(c1cccnc1)N1CCOCC1 (configuration not stated) | inactive
COc1ccc(C(=O)c2cn(CC(=O)Nc3cc(OC)cc(OC)c3)c3ccc(OC)cc3c2=O)cc1 | inactive
[O-]/[N+](=C\C=C\c1ccccc1)c1ccccc1 | inactive
COc1ccccc1NC(=O)COc1coc(CN2CCN(c3ccccc3)CC2)cc1=O | inconclusive: 10.4 µM [inhibitor, single point]
Cc1cc(C(=O)N/N=C/c2ccc3c(c2)OCO3)c(C)o1 | inactive
O=[N+]([O-])c1ccc(N2CCN(S(=O)(=O)c3cnc[nH]3)CC2)cc1 | inactive
COc1ccc2oc(C(=O)c3ccccc3)c(N)c2c1 | inactive
CC(CS(=O)(=O)c1cccc2cccnc12)N1CCCCC1 (configuration not stated) | inconclusive: 11.7 µM [inhibitor, single point]
Cc1ccc2c(c1)N(CC(=O)Nc1ccccc1F)C(=O)CO2 | active: 2.94 µM
